Taken from: PubChem BioAssay AID1259308 (NCATS, 2017)

- Test: 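Genes whose loss raises luciferase production in HEK293 cells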 (primary screen)
- Cell system: human HEK293 embryonic kidney cells stably expressing firefly luciferase (HEK-CMV-Luc2-Hygro)
- Knock-down reagent: single siRNA against human genes, 0.8 pmol siRNA per well
- Duration: 72 h
- Read-out: 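Reporter luminescence and viable-cell signal on separate replicate plates, given as percent of non-targeting control and median/MAD z-scores, plus per-cell luciferase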
- Direction: total luciferase, z-score and total luciferase, % of control: higher = more reporter protein produced; luciferase per cell, z-score: higher = more reporter output per viable cell
- Active means: 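An siRNA counts as active if its total luciferase robust z-score exceeds 3; genes with two or more such siRNAs out of three were retested with fresh siRNAs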
- Meaning of the calls: active = raised luciferase; inactive = no rise
In all, the deposit lists about 59,000 reagents; this is an unselected part. About 1,510 of all reagents (2.6%) were called active. 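Calls use total luciferase alone and ignore viability, so some active siRNAs may act by altering cell number.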 A number with no mark means an inactive call. Reagents against one gene are numbered here. Not all columns of the deposit are shown.

no.	gene knocked down	reagent	total luciferase, z-score	total luciferase, % of control	luciferase per cell, z-score
1	ZNF562 (zinc finger protein 562)	1	2.88	139	1.68
2	ZNF562 (zinc finger protein 562)	2	3.71 (active)	156	2.94
3	ZNF562 (zinc finger protein 562)	3	-0.46	72.7	-0.271
4	BPIFB6 (BPI fold containing family B member 6)	1	0.498	91.8	0.25
5	BPIFB6 (BPI fold containing family B member 6)	2	4.18 (active)	165	4.92
6	BPIFB6 (BPI fold containing family B member 6)	3	0.183	85.5	0.023
7	PLEKHS1 (pleckstrin homology domain containing S1)	1	-0.691	68.1	-0.528
8	PLEKHS1 (pleckstrin homology domain containing S1)	2	0.808	98	0.375
9	PLEKHS1 (pleckstrin homology domain containing S1)	3	0.849	98.8	0.502
10	LYPD4 (LY6/PLAUR domain containing 4)	1	1.3	108	0.372
11	LYPD4 (LY6/PLAUR domain containing 4)	2	-0.535	71.2	-0.356
12	LYPD4 (LY6/PLAUR domain containing 4)	3	-0.0148	81.6	0.0861
13	TMEM156 (transmembrane protein 156)	1	0.446	90.7	-0.149
14	TMEM156 (transmembrane protein 156)	2	-0.219	77.5	-0.665
15	TMEM156 (transmembrane protein 156)	3	0.259	87	-0.746
16	MOV10L1 (Mov10 like RNA helicase 1)	1	-1.64	49.4	-2.15
17	MOV10L1 (Mov10 like RNA helicase 1)	2	0.362	89.1	-0.0293
18	MOV10L1 (Mov10 like RNA helicase 1)	3	0.214	86.1	1.14
19	GOT2 (glutamic-oxaloacetic transaminase 2)	1	-2.08	40.5	-2.4
20	GOT2 (glutamic-oxaloacetic transaminase 2)	2	-1.24	57.2	-0.93
21	GOT2 (glutamic-oxaloacetic transaminase 2)	3	-0.678	68.4	-0.386
22	PFKM (phosphofructokinase, muscle)	1	-1.88	44.4	-1.23
23	PFKM (phosphofructokinase, muscle)	2	-0.505	71.8	-0.303
24	PFKM (phosphofructokinase, muscle)	3	-0.738	67.2	-0.854

Records above whose target name begins with T or t (3):
gene knocked down	reagent	total luciferase, z-score	total luciferase, % of control	luciferase per cell, z-score
TMEM156 (transmembrane protein 156)	1	0.446	90.7	-0.149
TMEM156 (transmembrane protein 156)	2	-0.219	77.5	-0.665
TMEM156 (transmembrane protein 156)	3	0.259	87	-0.746

The listing continues:
no.	gene knocked down	reagent	total luciferase, z-score	total luciferase, % of control	luciferase per cell, z-score
25	GOLGA5 (golgin A5)	1	-0.0286	81.3	0.828
26	GOLGA5 (golgin A5)	2	-0.129	79.3	0.12
27	GOLGA5 (golgin A5)	3	0.919	100	1.22
28	ACTR3B (actin related protein 3B)	1	-2.22	37.7	-2.03
29	ACTR3B (actin related protein 3B)	2	1	102	0.37
30	ACTR3B (actin related protein 3B)	3	0.121	84.3	-0.285
31	PAIP2 (poly(A) binding protein interacting protein 2)	1	3.87 (active)	159	2.13
32	PAIP2 (poly(A) binding protein interacting protein 2)	2	-1.07	60.6	-1.5
33	PAIP2 (poly(A) binding protein interacting protein 2)	3	-0.0197	81.5	0.018
34	ST20-AS1 (ST20 antisense RNA 1)	1	-0.213	77.7	0.611
35	ST20-AS1 (ST20 antisense RNA 1)	2	-0.364	74.7	0.805
36	ST20-AS1 (ST20 antisense RNA 1)	3	1.3	108	1.69
37	EIF4ENIF1	1	-0.0567	80.8	0.233
38	EIF4ENIF1	2	-0.827	65.4	-0.731
39	EIF4ENIF1	3	-0.0466	81	0.0457
40	SH2D3A (SH2 domain containing 3A)	1	0.28	87.5	0.233
41	SH2D3A (SH2 domain containing 3A)	2	1.23	106	2.54
42	SH2D3A (SH2 domain containing 3A)	3	0.26	87.1	-0.63
43	SDR42E1 (short chain dehydrogenase/reductase family 42E, member 1)	1	-0.794	66.1	-0.731
44	SDR42E1 (short chain dehydrogenase/reductase family 42E, member 1)	2	-0.744	67.1	-0.927
45	SDR42E1 (short chain dehydrogenase/reductase family 42E, member 1)	3	-0.965	62.7	-0.852
46	ECEL1 (endothelin converting enzyme like 1)	1	-0.0803	80.3	0.89
47	ECEL1 (endothelin converting enzyme like 1)	2	-0.638	69.2	-0.741
48	ECEL1 (endothelin converting enzyme like 1)	3	0.485	91.5	0.625
49	SLC4A4	1	0.819	98.2	0.999
50	SLC4A4	2	0.59	93.6	-0.321
51	SLC4A4	3	1.58	113	0.965
52	SMCO1 (single-pass membrane protein with coiled-coil domains 1)	1	0.928	100	0.91
53	SMCO1 (single-pass membrane protein with coiled-coil domains 1)	2	-0.0502	80.9	-0.425
54	SMCO1 (single-pass membrane protein with coiled-coil domains 1)	3	0.873	99.2	1.01
55	SLC35B1	1	1.32	108	0.965
56	SLC35B1	2	-0.33	75.3	-0.382
57	SLC35B1	3	1.63	114	1.72
